No constants are given. Whether binding was seen depends on the method and setting. Binding seen in cells or lysates may run through a third protein. These calls come from enrichment with a bait or labelling near it, and not all partners need be listed. A no says only that the protein was not detected with the bait. Sequences can lack the tags named with a protein.
Target: T1, Red1-3×FLAG (S. pombe) (UniProt Q9UTR8)
T1 sequence: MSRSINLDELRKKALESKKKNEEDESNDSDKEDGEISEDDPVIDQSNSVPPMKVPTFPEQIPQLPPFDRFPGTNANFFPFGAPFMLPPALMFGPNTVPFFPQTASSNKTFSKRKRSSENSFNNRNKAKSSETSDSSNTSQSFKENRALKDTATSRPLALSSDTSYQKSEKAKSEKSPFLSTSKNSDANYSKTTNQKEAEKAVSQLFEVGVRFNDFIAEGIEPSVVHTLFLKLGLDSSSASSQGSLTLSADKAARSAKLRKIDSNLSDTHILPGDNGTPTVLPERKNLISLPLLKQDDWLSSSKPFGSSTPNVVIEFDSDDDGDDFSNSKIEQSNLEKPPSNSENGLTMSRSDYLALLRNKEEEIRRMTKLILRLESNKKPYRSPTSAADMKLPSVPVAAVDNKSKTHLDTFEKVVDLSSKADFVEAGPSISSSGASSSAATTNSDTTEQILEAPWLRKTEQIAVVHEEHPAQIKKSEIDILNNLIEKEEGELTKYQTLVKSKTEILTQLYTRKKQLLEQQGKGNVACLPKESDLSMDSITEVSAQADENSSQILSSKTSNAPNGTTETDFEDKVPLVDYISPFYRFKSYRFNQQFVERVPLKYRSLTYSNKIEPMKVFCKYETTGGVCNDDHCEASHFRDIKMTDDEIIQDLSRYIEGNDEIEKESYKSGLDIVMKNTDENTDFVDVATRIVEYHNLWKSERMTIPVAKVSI
Assay: affinity purification with mass spectrometry; 3×FLAG- or 13×myc-tagged bait purified from S. pombe cell extract on α-FLAG (M2) or α-myc (9E10) antibody cross-linked to Protein G Dynabeads, 4°C for 3 h, IP buffer (20 mM HEPES pH 7.5, 100 mM NaCl, 5 mM MgCl2, 1 mM EDTA, 10% glycerol, 0.25% Triton X-100, 0.5 mM DTT); LC-MS/MS; Red1-3×FLAG also from iss10Δ, rmn1Δ and Mtl1 knockdown cells

Protein sequences, listed by entry. Tags and fused reporters are not part of them.
UniProt O60016: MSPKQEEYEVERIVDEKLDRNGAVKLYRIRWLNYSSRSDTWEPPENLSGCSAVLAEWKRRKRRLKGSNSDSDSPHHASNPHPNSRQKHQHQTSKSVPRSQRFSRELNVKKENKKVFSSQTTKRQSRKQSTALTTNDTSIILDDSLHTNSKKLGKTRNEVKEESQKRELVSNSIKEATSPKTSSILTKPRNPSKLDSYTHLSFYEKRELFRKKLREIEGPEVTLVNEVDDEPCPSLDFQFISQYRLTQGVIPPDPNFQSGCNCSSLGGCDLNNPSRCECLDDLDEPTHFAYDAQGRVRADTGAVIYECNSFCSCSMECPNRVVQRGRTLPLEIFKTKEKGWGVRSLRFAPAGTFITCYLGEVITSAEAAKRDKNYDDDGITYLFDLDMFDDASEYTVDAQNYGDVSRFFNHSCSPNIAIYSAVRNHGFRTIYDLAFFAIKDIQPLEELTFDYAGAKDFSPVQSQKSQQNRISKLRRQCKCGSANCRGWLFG

- binding: no binding
Substance: Clr4 (from UniProt O60016 1-490)

From paper PMC4024641
